Patent publication US7223392
No constants are given. Whether binding was seen depends on the method and setting. Some results given as binding are weak or reduced against the parent protein; the word gives no strength.

Tests used:
[1] = molecular target: T1, soluble CD23 (sCD23) purified from the supernatant of human RPMI 8866 cells (human) (UniProt P06734); test: ELISA on sCD23 captured by BG-6
T1 sequence (looked up): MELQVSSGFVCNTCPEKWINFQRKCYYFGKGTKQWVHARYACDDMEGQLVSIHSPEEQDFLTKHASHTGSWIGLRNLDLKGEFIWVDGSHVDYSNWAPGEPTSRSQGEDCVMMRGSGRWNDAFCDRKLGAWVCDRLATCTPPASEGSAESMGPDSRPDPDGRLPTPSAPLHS

[2] = molecular target: T2, human CD23, the low affinity receptor for IgE (FceRII/CD23) (human) (UniProt P06734); test: competition binding assay (FIG. 2)
T2 sequence (looked up): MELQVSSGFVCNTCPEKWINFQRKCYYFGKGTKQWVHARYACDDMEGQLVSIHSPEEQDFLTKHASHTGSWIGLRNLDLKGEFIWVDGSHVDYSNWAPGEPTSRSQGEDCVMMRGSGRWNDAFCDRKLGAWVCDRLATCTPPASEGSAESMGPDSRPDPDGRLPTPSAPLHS

binding [1]: binds
binding [2]: binds
B1: primate monoclonal anti-human CD23 antibody 6G5 (antibody, V domains shown)
VH: QLQLQESGPGVVKPSETLSLTCAVSGGSVSSSNWWTWIRQPPGKGLEWIGRISGSGGATNYNPSLKSRVIISQDTSKNQFSLNLNSVTAADTAVYYCARDWAQIAGTTLGFWGQGVLVTVSS
VL: QSAPTQPPSVSGSPGQSVTISCTGTSDDVGGYNYVSWYQHHPGKAPKLMIYDVAKRASGVSDRFSGSKSGNTASLTISGLQAEDEADYYCCSYTTSSTLLFGRGTRLTVL
